# Source: PubChem BioAssay AID651768 (National Center for Advancing Translational Sciences (NCATS), 2012)
# Amino acid sequences for entries named in this document (tags omitted).
# UniProt Q14191, whole entry, looked up: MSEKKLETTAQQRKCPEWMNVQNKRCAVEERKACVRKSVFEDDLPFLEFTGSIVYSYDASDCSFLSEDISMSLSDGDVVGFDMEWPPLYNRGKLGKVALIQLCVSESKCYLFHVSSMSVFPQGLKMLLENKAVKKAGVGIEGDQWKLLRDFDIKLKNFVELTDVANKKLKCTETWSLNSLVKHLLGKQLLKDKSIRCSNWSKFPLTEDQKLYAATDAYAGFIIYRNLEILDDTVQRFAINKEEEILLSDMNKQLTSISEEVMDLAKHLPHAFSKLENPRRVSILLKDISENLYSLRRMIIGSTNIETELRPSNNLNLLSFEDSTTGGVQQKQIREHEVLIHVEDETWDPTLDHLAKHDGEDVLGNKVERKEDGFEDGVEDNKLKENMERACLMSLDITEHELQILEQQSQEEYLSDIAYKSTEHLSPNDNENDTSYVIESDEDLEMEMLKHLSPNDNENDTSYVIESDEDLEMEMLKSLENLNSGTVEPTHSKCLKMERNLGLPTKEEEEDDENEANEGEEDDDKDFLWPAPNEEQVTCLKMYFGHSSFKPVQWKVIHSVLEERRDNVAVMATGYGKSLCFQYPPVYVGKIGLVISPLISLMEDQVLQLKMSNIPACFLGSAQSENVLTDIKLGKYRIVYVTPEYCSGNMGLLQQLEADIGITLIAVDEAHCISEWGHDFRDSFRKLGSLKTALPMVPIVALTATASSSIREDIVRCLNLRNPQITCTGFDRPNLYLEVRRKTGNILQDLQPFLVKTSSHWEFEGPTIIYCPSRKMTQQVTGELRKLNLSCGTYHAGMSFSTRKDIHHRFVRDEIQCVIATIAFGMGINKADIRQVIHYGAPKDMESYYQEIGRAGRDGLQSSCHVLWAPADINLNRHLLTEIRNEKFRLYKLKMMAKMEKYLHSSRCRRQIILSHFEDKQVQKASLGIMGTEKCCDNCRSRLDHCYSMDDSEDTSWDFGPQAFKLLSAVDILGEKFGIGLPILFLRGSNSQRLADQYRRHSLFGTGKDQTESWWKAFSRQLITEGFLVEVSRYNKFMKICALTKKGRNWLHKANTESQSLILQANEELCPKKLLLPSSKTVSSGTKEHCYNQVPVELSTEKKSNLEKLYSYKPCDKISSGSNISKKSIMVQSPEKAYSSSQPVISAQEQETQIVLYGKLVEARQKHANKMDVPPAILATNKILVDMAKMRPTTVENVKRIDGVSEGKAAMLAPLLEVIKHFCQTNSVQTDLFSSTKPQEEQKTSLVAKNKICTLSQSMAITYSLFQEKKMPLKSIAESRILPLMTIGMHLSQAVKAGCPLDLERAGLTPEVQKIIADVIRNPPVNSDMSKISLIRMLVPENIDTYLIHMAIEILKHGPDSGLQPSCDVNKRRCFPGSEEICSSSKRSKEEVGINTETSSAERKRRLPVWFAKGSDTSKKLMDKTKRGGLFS
# In all, about 360,000 compounds went through this assay and about 1,700 (0.47%) were called active. This list was built around the results that the source calls inconclusive (neither active nor inactive); the mix of calls is not that of the screen. The call rests on the fitted dose curve; in most records, active means well fitted inhibition curve with a large enough effect; inconclusive means small, poorly fitted or top-dose-only effect; inactive means no such curve, though single readings can be large or run the other way. Potencies beside an inconclusive call are fits to weak or partial responses and may not hold up.
# Molecular target: Bifunctional 3'-5' exonuclease/ATP-dependent helicase WRN (Homo sapiens) (UniProt Q14191)
# Assay: qHTS for Inhibitors of WRN Helicase; further: nearly all actives have a fitted effect of over 55% in size
# Conditions: WRN helicase unwinding, fluorescent forked duplex, kinetic; activity change, negative = inhibition: at 114 µM (top of the series) unless noted
# How it was run: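 WRN at 20 nM final was preincubated with compound for 15 min at room temperature; reaction started with 100 nM forked duplex oligonucleotide carrying fluorophore and quencher plus 2 mM ATP (final). Unwinding followed kinetically by red fluorescence (ex 525/em 598 nm).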
# On the % scale 0 is the no-effect control and ±100 the full control effect; potency means the concentration at half of the fitted maximal effect.
SMILES,Potency,"activity change, negative = inhibition"
Cc1cc(C)n(CCc2nc(-c3ccco3)cs2)n1,"inconclusive: 50.1 µM [inhibitor, partial curve]",
C=CCn1c(SCC(=O)NCc2ccco2)nnc1-c1ccc2ccccc2n1,"inconclusive: 50.1 µM [inhibitor, partial curve]",
Cc1ccc(NC(=O)CCNC(=O)c2ccco2)cc1,"inconclusive: 89.1 µM [inhibitor, single point]",
C#CCOCCOCCOCCNc1nc(N2CCN(C(=O)[C@H](CCCCN)n3cc([C@@H](N)CO)nn3)CC2)nc(N2CCN(C(=O)[C@H](CCCCN)n3cc([C@@H](N)CC(C)C)nn3)CC2)n1,"inconclusive: 79.4 µM [inhibitor, single point]",
COc1ccc(N=C2SC(CC(=O)Nc3ccccc3)C(=O)N2CCN2CCOCC2)cc1 (centres undefined),"inconclusive: 89.1 µM [inhibitor, single point]",
O=C(CCc1c[nH]c2ccccc12)N/N=C/c1ccc2c(c1)OCO2,,inactive: -9.19%
CCN1/C(=C/c2ccc3cc(C)ccc3[n+]2CC)Sc2cc(C)c(C)cc21,active: 50.1 µM,
COC(=O)c1ccc(COc2ccc(/C=C(\C#N)c3nc4ccccc4[nH]3)cc2OC)o1,"inconclusive: 89.1 µM [inhibitor, single point]",
CCCCn1c(=O)[nH]c2nc3cc(N)ccc3nc2c1=O,active: 50.1 µM,
CC(C)c1c(Cl)c(O)c(-c2ccccc2)c(=O)n1-c1ccc(F)cc1,"inconclusive: 56.2 µM [inhibitor, partial curve]",
CC(C)NS(=O)(=O)c1ccc(NC(=S)NC(=O)c2ccc(-c3ccccc3)cc2)cc1,,inactive: -11.2%
O=C(/C=C/c1ccco1)Nc1ccccc1C(=O)O,"inconclusive: 56.2 µM [inhibitor, partial curve]",
CC(C)=NNc1nc(-c2ccccc2)c(C)s1,,inactive: -5.55%
COc1ccccc1-c1nnc(SCC(=O)Nc2cccnc2Cl)n1C,,inactive: 5.04%
COCc1ccc2oc(C(=O)O)cc2c1,"inconclusive: 100 µM [inhibitor, partial curve]",
COc1ccc(-n2c(=O)c3ccccc3c3ccccc3c2=O)c(OC)c1,"inconclusive: 39.8 µM [inhibitor, partial curve]",
O=C(NCc1ccco1)c1ccc2c(=O)n(Cc3ccco3)c(SCC(=O)N3CCCC3)nc2c1,"inconclusive: 39.8 µM [inhibitor, partial curve]",
CCCCCCCCCCCCCCCC[n+]1cccc2ccccc21,"inconclusive: 50.1 µM [inhibitor, partial curve]",
Cc1c(CCC(=O)O)c(=O)oc2cc3occ(-c4ccc(Cl)cc4)c3cc12,,inactive: -21.2% [at 11.6 µM]
O=C1CCCC(O)=C1C(C#Cc1ccccc1)C1=C(O)CCCC1=O,"inconclusive: 70.8 µM [inhibitor, partial curve]",
Cc1ccc(C(=O)Oc2ccc(C(=O)COC(=O)C3CC(=O)N(Cc4ccco4)C3)cc2)cc1 (centres undefined),"inconclusive: 50.1 µM [inhibitor, partial curve]",
CC(=O)Nc1sc2c(c1C#N)CCCCC2,,inactive: 1.46%
O=C(Nc1cccc(-c2nc3cccnc3s2)c1)C1c2ccccc2Oc2ccccc21,,inactive: -26.8% [at 11.6 µM]

SMILES,Potency,"activity change, negative = inhibition"
O=C(NCc1ccc2c(c1)OCO2)c1cc2ncc(Br)cn2n1,"inconclusive: 89.1 µM [inhibitor, partial curve]",
CC(=O)c1cccc(NC(=O)C(C)OC(=O)CCc2nc3ccccc3c(=O)[nH]2)c1 (centres undefined),"inconclusive: 20 µM [inhibitor, full curve, poor fit]",
COc1cc(NC(=O)c2cccc(Cl)c2)c(OC)cc1NC(=O)CN1CCOCC1,,inactive: -2.38%
CC(C)(C)c1ccc(CS(=O)(=O)CC(O)CN2CCCC2=O)cc1 (centres undefined),,inactive: 1.82%
CC(C)Oc1cccc(C(=O)NC(=S)NCc2cccnc2)c1,"inconclusive: 56.2 µM [inhibitor, partial curve]",
O=C(Nc1cccc(-c2nn[nH]n2)c1)c1ccc(Br)s1,"inconclusive: 28.2 µM [inhibitor, partial curve, poor fit]",
COc1nnc(-c2ccccc2)s1,,inactive: -5.78%
COc1ccccc1C(=O)NNC(=O)c1nn(Cc2ccccc2)c(=O)c2ccccc12,"inconclusive: 79.4 µM [inhibitor, partial curve]",
O=C(CCCN1C(=O)/C(=C/c2cccs2)SC1=S)NNC(=O)c1ccccc1O,,inactive: -9.3%
COc1ccc2nc(NC(=O)c3ccc(NS(=O)(=O)c4cccs4)cc3)sc2c1,"inconclusive: 22.4 µM [inhibitor, single point]",
CCN1C(=O)/C(=C2\SC(=S)N(NC(=O)c3ccccc3O)C2=O)c2ccccc21,"inconclusive: 31.6 µM [inhibitor, partial curve]",
Cc1cccc(OCC(=O)NCC(=O)N/N=C/c2cc(Br)cc(Br)c2O)c1,"inconclusive: 15.8 µM [inhibitor, single point]",
c1ccc(C(c2ccccc2)N2CCN(C(c3ccccn3)c3nnnn3C3CCCC3)CC2)cc1 (centres undefined),"inconclusive: 39.8 µM [inhibitor, single point]",
CC(/C=C/c1ccco1)=N\NC(=O)c1cc(C)[nH]n1,"inconclusive: 56.2 µM [inhibitor, partial curve]",
CC(=O)C1=C(O)C(=O)N(c2ccc(Br)cn2)C1c1ccccc1[N+](=O)[O-] (centres undefined),,inactive: 9.65%
COc1ccccc1-c1nc2s/c(=C\c3cccs3)c(=O)n2n1,"inconclusive: 50.1 µM [inhibitor, partial curve]",
Cc1ccc2nc(-c3ccc(-c4ccccn4)s3)cn2c1,"inconclusive: 7.08 µM [inhibitor, full curve, poor fit]",
COc1ccccc1C(CCN(Cc1cccs1)C(C)=O)c1ccco1 (centres undefined),"inconclusive: 29.9 µM [inhibitor, partial curve]",
Cc1ccc(Oc2ccc3c(c2)C(=O)N(c2ccc(S(=O)(=O)Nc4nccs4)cc2)C3=O)cc1,"inconclusive: 56.2 µM [inhibitor, partial curve]",
C[C@H](NC(=O)N1CCn2c1nc1ccccc12)C(=O)NCC1CCCO1 (some centres undefined),,inactive: 15.6%
O=C(CNc1ccc(F)cc1F)NC(=O)NCc1ccco1,"inconclusive: 89.1 µM [inhibitor, single point]",
O=C(Nc1nccs1)c1cc(-c2ccco2)nc2ccccc12,"inconclusive: 39.8 µM [inhibitor, partial curve]",
COc1ccc(CN2CCN(CC=C(C)C)C(CCO)C2)cc1Cn1cncn1 (centres undefined),"inconclusive: 20 µM [inhibitor, single point]",

SMILES,Potency,"activity change, negative = inhibition"
CCc1ccc(S(=O)(=O)Nc2nccs2)cc1,"inconclusive: 70.8 µM [inhibitor, single point]",
O=C(COc1coc(CN2CCc3ccccc3C2)cc1=O)Nc1cccc(F)c1,"inconclusive: 50.1 µM [inhibitor, partial curve, poor fit]",
CCN(Cc1ccncc1)Cc1c(O)ccc2cc(Br)ccc12,,inactive: -25.9%
CC(=O)Nc1sc(/C(C#N)=C\c2cccc(Cl)c2)nc1-c1ccc(C)cc1,"inconclusive: 89.1 µM [inhibitor, partial curve, poor fit]",
Cc1ccc(-c2cc(C(=O)Nc3ccc(S(=O)(=O)Nc4ncccn4)cc3)[nH]n2)c(O)c1C,"inconclusive: 50.1 µM [inhibitor, partial curve]",
N#CCc1ccc(NC(=O)/C=C/c2ccc([N+](=O)[O-])o2)cc1,"inconclusive: 56.2 µM [inhibitor, partial curve]",
Cc1ccc(C(=O)Nc2sc3c(c2C(=O)O)CCCC3)o1,,inactive: -0.827%
COCCNC(=O)c1cnn2c(C(F)F)cc(-c3ccccc3)nc12,"inconclusive: 31.6 µM [inhibitor, single point]",
CC(C(=O)Nc1ccccc1C(=O)N1CCOCC1)N(c1ccc(Cl)cc1)S(C)(=O)=O (centres undefined),"inconclusive: 89.1 µM [inhibitor, single point]",
CSc1ncccc1C(=O)OCC(=O)c1ccccc1Br,"inconclusive: 89.1 µM [inhibitor, single point]",
Cc1cc(NS(=O)(=O)c2ccc(NC(=O)c3c(F)c(F)c(F)c(F)c3F)cc2)nc(C)n1,"inconclusive: 39.8 µM [inhibitor, full curve, poor fit]",
N=C1/C(=C/c2ccc(OCc3ccccc3)cc2)C(=O)N=C2SC(CC(=O)N3CCOCC3)=NN12,,inactive: -20.1%
COc1ccc(Nc2nc(NCc3ccco3)nc(N/N=C/c3ccc(O)cc3)n2)cc1,"inconclusive: 100 µM [inhibitor, single point]",
CCOC(=O)N1CCc2c(sc(NC(=O)c3ccc(S(=O)(=O)N4CCCC4)cc3)c2C#N)C1,,inactive: -7.38%
CCCC(=O)Nc1c(C)n[nH]c1C,,inactive: -10.5%
CC(=O)NC1=NN(C(C)=O)C(C)(c2ccc3ccccc3c2)S1 (centres undefined),,inactive: 5.45%
CCN(CC)CCNc1ccc(C)c2sc3ccc(O)cc3c(=O)c12,"inconclusive: 15.8 µM [inhibitor, full curve]",
CCOCCCNC(=O)/C(C#N)=C/c1cc(OC)c(O)c([N+](=O)[O-])c1,,inactive: -11.1%
O=C(N/N=C/c1ccc(OC(=O)c2ccccc2)c([N+](=O)[O-])c1)c1ccc(O)cc1,,inactive: -8.25%
O=C(CCCOc1ccc(Cl)cc1Cl)Nc1ccccc1C(=O)O,,inactive: -6.98%
NS(=O)(=O)c1ccc(NC(=S)NC(=O)/C=C/c2ccco2)cc1,,inactive: -13% [at 11.6 µM]
C=CCNC(=O)c1ccccc1NS(=O)(=O)c1ccc(OC)c(C(=O)N2CCOCC2)c1,,inactive: -1.76%
Cc1ccc(-n2c(SCC(=O)N/N=C/c3c(C)nn(-c4ccccc4)c3C)nc3ccccc3c2=O)cc1,"inconclusive: 39.8 µM [inhibitor, single point]",

# Structures listed so far with a nitro group on carbon:
SMILES,Potency,"activity change, negative = inhibition"
CC(=O)C1=C(O)C(=O)N(c2ccc(Br)cn2)C1c1ccccc1[N+](=O)[O-] (centres undefined),,inactive: 9.65%
N#CCc1ccc(NC(=O)/C=C/c2ccc([N+](=O)[O-])o2)cc1,"inconclusive: 56.2 µM [inhibitor, partial curve]",
CCOCCCNC(=O)/C(C#N)=C/c1cc(OC)c(O)c([N+](=O)[O-])c1,,inactive: -11.1%
O=C(N/N=C/c1ccc(OC(=O)c2ccccc2)c([N+](=O)[O-])c1)c1ccc(O)cc1,,inactive: -8.25%
